Library screen at single concentrations

Results are given as percent effect. The controls that fix the scale are not given in the record; negative values are as filed. Compounds were drawn at random from those tested, without regard to their results. Two or more numbers in one place are separate tests of the same structure; such repeats can differ widely.

A: 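Phenotypic screen: M. tuberculosis growth, glucose 7H9 medium, 3 days; the read-out is not stated. Tested at 50 µM. The record gives no direction; compounds that gave an IC50 in retests scored well above the rest, so higher reads as more growth inhibition. Size under these conditions: about 69,000 compounds, about 760 of them at 50% or above in at least one test.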
B: 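Whole-cell growth test on Mycobacterium tuberculosis, read after 4 days in a medium based on cholesterol and the lipid DPPC; the read-out is not stated. Tested at 50 µM. Direction is inferred from retests: higher values go with more growth inhibition. Of about 69,000 compounds tested this way, about 370 (0.54%) reached 50% or more in at least one test.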

| # | SMILES | A | B |
|---|---|---|---|
| 1 | `[H][C@]12CC=C(CN3CCCn4nc(CNS(C)(=O)=O)cc4C3)[C@]([H])(C1)C2(C)C` | -26.11% | -2.097% |
| 2 | `O=C(O)C(F)(F)F.O=C(O)C(F)(F)F.O=C(O)C(F)(F)F.O=C(O)C(F)(F)F.c1ccc(CN2CCc3c(COCc4ccncc4)cncc3C2)nc1` | -20.78% | -3.4% and -8.603% |
| 3 | `O=S(=O)(Nc1cn[nH]c1)c1ccc(Br)c(F)c1` | 20.08% | 20.3% |
| 4 | `CCN(CCNS(=O)(=O)N1CCOCC1)C(=O)OC(C)(C)C` | -17.53% | -24.49% |
| 5 | `CN1CCN(c2cc(CNC(=O)c3ccc(=O)n(C)c3)ccn2)CC1` | 15.79% | 19.11% |
| 6 | `Cc1cc(C)n(CC2CCCCN2C(=O)c2ccc3nncn3c2)n1` (stereo unspecified) | -2.322% | -4.612% |
| 7 | `CN(Cc1cccs1)C(=O)CN(C)C1CCc2ccccc21` (stereo unspecified) | 18.78% | 11.99% |
| 8 | `O=C(NC1CCOCC1)C1CC(=O)N(Cc2ccccn2)C1` (stereo unspecified) | -5.102% | -3.412% |
| 9 | `COC(=O)N1CCN(c2ncnc3nc(C)cc(C)c23)CC1` | 11.26% | -2.454% |
| 10 | `O=C(CN1CCCC1c1nc(-c2ccccc2)no1)N1CCOCC1` (stereo unspecified) | -19.04% | -3.673% and -1.243% |
| 11 | `N#Cc1cccc(CN2CCn3cc(CNC(=O)C4CCC4)nc3C2)c1` | 3.23% and 12.6% | -9.665% |
| 12 | `c1ccc(-c2nc(CN3CCOC(Cn4cncn4)C3)cs2)cc1` (stereo unspecified) | 21.51% | 10.67% |
| 13 | `Cc1cnn(C2CN(CC(=O)NCCc3cccs3)C2)c1` | 28.94% | -4.972% |
| 14 | `O=C1CNc2ncnc(Nc3cnn(Cc4cccc(F)c4)c3)c2N1` | 4.1% | -13.59% |
| 15 | `COc1c(C2CCCN2Cc2cc(C)no2)c(C)nn1C` (stereo unspecified) | -13.3% | -28.08% |
| 16 | `CN(Cc1nc(Cc2ccccc2F)no1)CC1Cc2ccccc2O1` (stereo unspecified) | -1.742% | -3.866% |
| 17 | `COc1ccc(F)cc1C(C)NC(=O)Cn1ccc(=O)n(C)c1=O` (stereo unspecified) | 1.855% | -3.981% |
| 18 | `CC(CC#N)n1ccc(C(F)(F)F)n1` (stereo unspecified) | 12.91% | -4.763% |
| 19 | `Cc1cnc(C)c(-c2cc(O)c3c(c2)CN(Cc2nccs2)CCO3)n1` | -2.875% and 4.748% | 17.93% |
| 20 | `COc1ccccc1CC(=O)NCc1c(C)nc2cc(=O)[nH]n2c1C` | 13.05% | 10.69% |
| 21 | `CCCN(CC(=O)OC)C(=O)c1sc(C)nc1C` | -6.501% | -12.99% |
| 22 | `OCCN1CCCC(c2nccnc2Oc2ccccc2)C1` (stereo unspecified) | -1.607% | -2.39% |
| 23 | `CCc1noc(C2CCCCN2C(=O)c2ccccc2)n1` (stereo unspecified) | -18.71% | 2.576% and -11.88% |
| 24 | `CN(CCCc1nccn1C)C(=O)C1CCN(C(=O)C2CCC2)CC1` | 3.249% | 13.2% |
| 25 | `CC(C)CNC(=O)c1c(-n2cnnn2)sc2c1CCCC2` | 21.63% | 10.46% |
| 26 | `CCN1CC(c2ccccc2)CC2(CCN(Cc3ncc[nH]3)CC2)C1` (stereo unspecified) | -2.542% and -22.27% | -9.151% |
| 27 | `O=C1CCOC[C@]2(CN(Cc3ccccc3)C[C@H]2c2cccc(F)c2)N1` | -2.71% | -16.05% and -0.681% |
| 28 | `Cc1cccc2nc(CN3CCCC(C)C3)cc(=O)n12` (stereo unspecified) | -34.51% and -3.119% | -11.88% |
| 29 | `COc1cccc(C(=O)NC(C)CCN2CCOCC2)c1F` (stereo unspecified) | -13.84% | 1.886% |
| 30 | `CCn1cnnc1CNC(=O)NC(c1cccs1)C1CCCC1` (stereo unspecified) | -21.84% | -27.64% |
| 31 | `Cc1ccc(CNC(=O)C2CCNC(=O)C2)c(OCCC(C)C)c1` (stereo unspecified) | -1.316% | -21.59% and -11.07% |
| 32 | `O=C(NCC1(CO)CC1)c1ccccc1Br` | 5.694% | 7.679% |
| 33 | `CCc1ccc(S(=O)(=O)Nc2cc(OC)c(OC)cc2C(=O)O)s1` | -10.83% | -12.71% |
| 34 | `O=C(NCC1(N2CCOCC2)CCSC1)Nc1cn[nH]c1` (stereo unspecified) | 2.624% and -6.736% | 15.08% |
| 35 | `CCc1cc(NCCCOC2CCN(C)CC2)ncn1` | -10.86% | -4.392% |
| 36 | `CNS(=O)(=O)c1ccc(CNC(=O)NCC2CCC2)cc1` | 9.108% | 19.17% |
| 37 | `Cc1cnn(CC2CCCN2CC(=O)NC2CCN(C3CC3)CC2)c1` (stereo unspecified) | -9.335% | -31.64% |
| 38 | `Cc1cnn(CC2CCCN2Cc2cc(C)on2)c1` (stereo unspecified) | 1.728% | 6.296% |
| 39 | `COCCNC(=O)NC1(c2ccccc2F)CC1` | 17.77% | -5.284% |
| 40 | `CC(=O)c1c(F)cccc1NCC(O)C(C)(C)C` (stereo unspecified) | 1.568% | 6.099% |
| 41 | `COCCCNC(=O)NCc1ccc(C)cc1` | 12.31% | 3.587% |
| 42 | `CS(=O)(=O)c1ccc(CNC(=O)N2CCC(C(N)=O)C2)cc1` (stereo unspecified) | 5.877% | 3.126% |
| 43 | `O=C(c1ccc(OCC2CC2)nc1)N1CCCC(n2ccnc2)C1` (stereo unspecified) | -8.819% | -16.87% |
| 44 | `Cc1cccc(-c2ccc(C(=O)NCC3CCCO3)c(=O)[nH]2)c1` (stereo unspecified) | -2.538% and 0.8488% | -9.175% |
| 45 | `Cn1cnc(-c2nc(C(=O)NCCN3CCCC3)c3ccccn23)c1` | -19.13% | -14.85% |
| 46 | `CC(C)CN(CC(O)c1ccc(F)cc1)C(=O)c1csnn1` (stereo unspecified) | -19.94% | -19.39% |
| 47 | `CC(C#N)NS(=O)(=O)c1ccc2c(c1)N(C)CCC2` (stereo unspecified) | 26.54% | -26.07% |
| 48 | `COc1cccc(-c2noc(-c3ccc(NCC(C)C)nc3)n2)c1OC` | 7.029% | 11.51% and 11.13% |
| 49 | `CCCN1Cc2ccccc2NC(=O)C12CCNC2` (stereo unspecified) | 22.11% | -2.807% |
| 50 | `Cc1ccc(NC(=O)C2CSCN2C(=O)c2cnsn2)c(C)c1` (stereo unspecified) | -1.298% | -5.429% |
| 51 | `Cc1ccc2c(c1)OCCCC2NCc1nccn1Cc1ccccc1` (stereo unspecified) | 42.78% | 18.23% |
| 52 | `[H][C@@]12OCCN(C(=O)C3CCCC3)[C@@]1([H])CC[C@H]2OCC1CCOCC1` | 8.16% | 5.655% |
| 53 | `CCc1ncnc2c1CCN(Cc1nccs1)CC2.O=C(O)C(F)(F)F` | -5.581% | -13.66% |
| 54 | `CNC(=O)[C@@H](c1ccccc1)N1CCC[C@H]1C(=O)NC1CCCCC1.Cl` | 5.376% and -0.9222% | 17.59% |
| 55 | `Cc1noc(CN2CC(=O)N(C)c3ccccc3C2=O)n1` | 22.36% | -2.27% |
| 56 | `COC(=O)C1=NOC(Cc2cc(OC)c3c(c2)OCO3)C1` (stereo unspecified) | 31.49% | 6.985% |
| 57 | `CCN(CC)CC[C@H]1CN(C(=O)c2ccc(F)cc2)CC[C@H]1CC(=O)O` | 0.7335% and -18.64% | -7.345% |
| 58 | `Cc1ncc(CN(C)C2CCCN(Cc3noc(C4CC4)n3)C2)s1` (stereo unspecified) | -6.112% | -3.052% |
| 59 | `CCC(CC)n1nc(C)cc1NC(=O)CC1CCOCC1` | -0.6163% | -23.57% |
| 60 | `O=c1[nH]cnc2[nH]c(N3CCNCC3)nc12` | 0.446% and 28.81% | 14.31% |
| 61 | `CCn1cc(S(=O)(=O)Nc2nc3c(s2)CC(C)CC3)cn1` (stereo unspecified) | -19.11% | -20.8% and -4.217% |
| 62 | `COCC(NC(=O)c1ccc[nH]1)c1cccc(C(F)(F)F)c1` (stereo unspecified) | 4.072% and -23.38% | -28.38% |
| 63 | `Cc1ncc(CN(C)CC(O)c2cccc(C(F)(F)F)c2)s1` (stereo unspecified) | -51.8% | -7.121% |
| 64 | `COc1cccc(-c2nc(C)c(C(=O)N[C@H](CO)CCSC)s2)c1` | -11.22% | -10.9% |
| 65 | `Cc1ccc(Cl)cc1NC(=O)C1CSc2ncc(C)c(=O)n2C1` (stereo unspecified) | -4.338% | 4.808% |
| 66 | `CC1CN(Cc2ccccc2)CCCN1CCNS(C)(=O)=O` (stereo unspecified) | -10.7% | -2.419% |
| 67 | `Cc1nn(C)c(N2CCOCC2)c1CNCc1ccnn1C` | -0.4104% | 1.712% |
| 68 | `Cc1cccc(C(=O)N2CCC3(CC2)CC(c2cnn(C)c2)CO3)c1` (stereo unspecified) | -25.48% | 0.6773% and 16.41% |
| 69 | `CCC(c1ccc(F)cc1F)N1CCN(CCO)CC1` (stereo unspecified) | 0.2361% | 2.52% |
| 70 | `CCCC1CCCN(Cc2csc(-c3ncccn3)n2)CC1` (stereo unspecified) | 30.04% | 23.99% |
| 71 | `CC(C)CCNc1c(C#N)c2c(c3nncn13)CN(C)CC2` | 3.473% | -7.422% |
| 72 | `CN(CC(C)(CO)CO)C(=O)Nc1cc(Cl)cc(Cl)c1` | 34.5% and 4.247% | 16.62% |
| 73 | `COC(=O)N1CCCC(C(=O)N(C)C)C1` (stereo unspecified) | 9.335% | -6.001% |
| 74 | `CC(CN1CCOC1=O)NC(=O)c1cccc(Cl)c1Cl` (stereo unspecified) | -3.748% | -12.14% |
| 75 | `COc1ccc(OC)c(C(C)NS(=O)(=O)c2cn(C)nc2C)c1` (stereo unspecified) | -5.228% and -3.278% | -12.29% |
| 76 | `COc1nc2c(cc1C(=O)NCCCc1nnc(N)s1)CCC2` | 15.41% | 0.2104% |
| 77 | `Cc1ccc(C)c(-n2cc(CN3CC[C@@H](O)C3)c(-c3ccccc3)n2)c1` | 71.73% | 36.76% and 26.82% |

Some entries from above, unchanged:

SMILES,A,B
Cc1ccc(CNC(=O)C2CCNC(=O)C2)c(OCCC(C)C)c1 (stereo unspecified),-1.316%,-21.59% and -11.07%
Cc1ccc(C)c(-n2cc(CN3CC[C@@H](O)C3)c(-c3ccccc3)n2)c1,71.73%,36.76% and 26.82%
O=c1[nH]cnc2[nH]c(N3CCNCC3)nc12,0.446% and 28.81%,14.31%
CCN(CC)CC[C@H]1CN(C(=O)c2ccc(F)cc2)CC[C@H]1CC(=O)O,0.7335% and -18.64%,-7.345%

Source: ChEMBL document CHEMBL3988442, “University of Dundee, Small-Polar-MMV Screening Library” (2021).